Measurements: patent US12638439B2, “Method of using human spheroids for drug discovery” (AxoSim, Inc., priority 2019, dated 2026)

Test system: RTT spheroids
Assay: FLIPR spontaneous calcium oscillation assay of iPSC-derived cortical brain spheroids (SMART library screen)
Format: cell-based, human
Conditions: 298-compound SMART library on WT and RTT matured spheroids
Excerpt: In one embodiment, the present disclosure provides human induced pluripotent stem cells iPScs that are subsequently differentiated into human cortical neurons comprising neurons and astrocytes in approximately a 50:50 ratio. The ratio can be adjusted on a case by case basis depending on the particular disease of interest from 1 to 99% either neurons or astrocytes. The 3D spheroids are comprised of approximately 50:50 neurons to astrocytes ratio +1-10%. The methods of differentiating and forming 3 dimensional spheroids and functional testing with FLIPR optical techniques is described in copending patent application No. 62/532667. […]
The oscillations being measured are from calcium flux moving into and out of the cells at ambient conditions. […] When analyzing the data, it is important to understand that multiple factors contribute to the signal being recorded by the FLIPR software. Therefore, in the present disclosure 7 parameters are recorded to determine if the data generated from the spheroid is meaningful. The parameters measured are, e.g., peak count, peak width, average peak spacing, peak spacing standard deviation, peak decay time, peak rise time, and/or peak amplitude.
In the present disclosure, the SMART library that contained 298 compounds was used on both WT and RTT matured spheroids over several weeks and the FLIPR data collected and analyzed for potential therapeutic efficacy. […]

Compound: COc1cc2c(cc1OC)C(=O)C(CC1CCN(Cc3ccccc3)CC1)C2 (stereo not shown) [Donepezil]
- outcome of the SMART library screen (multivariant analysis): therapeutics of interest
